In paper PMC9271913:
These are yes or no findings as the source states them, for the method shown. Binding seen in cells or lysates may run through a third protein. A yes stands for co-enrichment or nearness to the bait. Other partners may have been found.

B1: Acyl-CoA dehydrogenase family member 9, mitochondrial (protein, UniProt Q8JZN5 42-625)
chain: SFAKELFLGNIEQKGVFPFPEVSQHELSEINQFVGPLEKFFTEEVDSRKIDQEGKIPVDTLEKLKSLGLFGIQVPEEYGGLGLSNTMYARLGEIISLDASITVTLAAHQAIGLKGIILVGNEEQKAKYLPKLSSGEHIAAFCLTEPASGSDAASIQTRATLSEDKKYFILNGSKVWITNGGLANIFTVFAKTEVVDSDGSKTDKMTAFIVERDFGGITNGKPEDKLGIRGSNTCEVHFENTRVPVENVLGEVGGGFKVAMNILNSGRFSMGSAVAGMLKKLIELTAEYACTRKQFNRNLSEFGLIQEKFALMAQKAYVMESMAYLTSGMLDQPGFPDCSIEAAMVKVFSSEAAWQCVSEALQILGGSGYMKDYPYERMLRDARILLIFEGTNEILRLFIALTGLQHAGRILTSRIKELKSGNVTTVMETIGRKLRDSLGRTVDLGLTGDLGVVHPSLGDSANKLEENVHYFGRTVETLLLRFGKNIVEEQLVLKRVANILINLYGMTAVLSRASRSIRIGLRNHDHEVLLANMFCVEAYFQNLFSLSQLDKNAPENLDEQIKKVSRQILEKRAYICAHPLDRAS
B2: Rtn3 (protein, UniProt Q9ES97 1-964)
chain: MAESSAATQSPSVSSSSSGAEPSALGGGGGSPGACPALGAKSCGSSCADSFVSSSSSQPVSIFSTSQAGLSSLCSDEPPSKSMTSSFLSSSEIHNPDPTTPLGEKSETLGSQFVLAKGKDPLVLLDKKKLDSPQGTNKDRVDAPVSLATGIPCSHPSIPDSFPEQPAFLSKEIGPAEEWVVKDQEPKNPNKVPDGEDRSALDFGQSKAEHICTYSLSPSELPVASVEKDSPESPFEVIIDKATFDREFKDLYKENPNDLGGWAAHGDRESPADLLEMNDKLFPLRNKEAGRYPSSVLLGRQFSHTTAALEEVSRCVNDMHNFTNEILTWDLDPQAKQQANKTSCTTESTGLDRSELRSEIPVINLKTNPQQKMPVCSFNGSTPITKSTGDWTEAFTEGKPVRDYLSSTKEAGGNGVPGSSQLHSELPGSMPEKWVSGSGAATVEVTLPNLRGAWPNSVMGEVTEVDSSGESDDTVIEDITEKPDSLPSAAAKTSEREIKETPSRETVRSEMCENSEQPQAQPETPTQKSLEGEVASQVPNTLNEVTPEKLDMTNNPKVCSAAPPSVLNETGFSLTVPASAKLESLLGKYVEDTDGSSPEDLMAVLTGAEEKGIVDKEEGDVLEAVLEKIADFKNTLPVELLHESELSGSETKNIKSKYSEDSRETTGGAPTMSPDLEQEQLTIRAIKELGERQAEKVQDEGISSGGKLKQTFAPQSGPQSSSDILEHTDVKTGSDLGIPKNPTIIKNTRIDSISSLTKTEMVNKNVLARLLSDFPVHDLIFWRDVKKTGFVFGTTLIMLLSLAAFSVISVVSYLILALLSVTISFRVYKSVIQAVQKSEEGHPFKAYLDVDITLSSEAFHNYMNAAMVHVNKALKLIIRLFLVEDLVDSLKLAVFMWLMTYVGAVFNGITLLILAELLVFSVPIVYEKYKTQIDHYVGIARDQTKSIVEKIQAKLPGIAKKKAE
B3: Rtn4 (protein, UniProt Q99P72 1-1162)
chain: MEDIDQSSLVSSSADSPPRPPPAFKYQFVTEPEDEEDEEDEEEEEDDEDLEELEVLERKPAAGLSAAPVPPAAAPLLDFSSDSVPPAPRGPLPAAPPTAPERQPSWERSPAASAPSLPPAAAVLPSKLPEDDEPPARPPAPAGASPLAEPAAPPSTPAAPKRRGSGSVDETLFALPAASEPVIPSSAEKIMDLKEQPGNTVSSGQEDFPSVLFETAASLPSLSPLSTVSFKEHGYLGNLSAVASTEGTIEETLNEASRELPERATNPFVNRESAEFSVLEYSEMGSSFNGSPKGESAMLVENTKEEVIVRSKDKEDLVCSAALHNPQESPATLTKVVKEDGVMSPEKTMDIFNEMKMSVVAPVREEYADFKPFEQAWEVKDTYEGSRDVLAARANMESKVDKKCFEDSLEQKGHGKDSESRNENASFPRTPELVKDGSRAYITCDSFSSATESTAANIFPVLEDHTSENKTDEKKIEERKAQIITEKTSPKTSNPFLVAIHDSEADYVTTDNLSKVTEAVVATMPEGLTPDLVQEACESELNEATGTKIAYETKVDLVQTSEAIQESIYPTAQLCPSFEEAEATPSPVLPDIVMEAPLNSLLPSTGASVAQPSASPLEVPSPVSYDGIKLEPENPPPYEEAMSVALKTSDSKEEIKEPESFNAAAQEAEAPYISIACDLIKETKLSTEPSPEFSNYSEIAKFEKSVPDHCELVDDSSPESEPVDLFSDDSIPEVPQTQEEAVMLMKESLTEVSETVTQHKHKERLSASPQEVGKPYLESFQPNLHITKDAASNEIPTLTKKETISLQMEEFNTAIYSNDDLLSSKEDKMKESETFSDSSPIEIIDEFPTFVSAKDDSPKEYTDLEVSNKSEIANVQSGANSLPCSELPCDLSFKNTYPKDEAHVSDEFSKSRSSVSKVPLLLPNVSALESQIEMGNIVKPKVLTKEAEEKLPSDTEKEDRSLTAVLSAELNKTSVVDLLYWRDIKKTGVVFGASLFLLLSLTVFSIVSVTAYIALALLSVTISFRIYKGVIQAIQKSDEGHPFRAYLESEVAISEELVQKYSNSALGHVNSTIKELRRLFLVDDLVDSLKFAVLMWVFTYVGALFNGLTLLILALISLFSIPVIYERHQAQIDHYLGLANKSVKDAMAKIQAKIPGLKRKAE
B4: Canx (protein, UniProt P35564 21-591)
chain: HDGHDDDAIDIEDDLDDVIEEVEDSKSKSDASTPPSPKVTYKAPVPTGEVYFADSFDRGSLSGWILSKAKKDDTDDEIAKYDGKWEVDEMKETKLPGDKGLVLMSRAKHHAISAKLNKPFLFDTKPLIVQYEVNFQNGIECGGAYVKLLSKTAELSLDQFHDKTPYTIMFGPDKCGEDYKLHFIFRHKNPKTGVYEEKHAKRPDADLKTYFTDKKTHLYTLILNPDNSFEILVDQSVVNSGNLLNDMTPPVNPSREIEDPEDRKPEDWDERPKIADPDAVKPDDWDEDAPSKIPDEEATKPEGWLDDEPEYIPDPDAEKPEDWDEDMDGEWEAPQIANPKCESAPGCGVWQRPMIDNPNYKGKWKPPMIDNPNYQGIWKPRKIPNPDFFEDLEPFKMTPFSAIGLELWSMTSDIFFDNFIISGDRRVVDDWANDGWGLKKAADGAAEPGVVLQMLEAAEERPWLWVVYILTVALPVFLVILFCCSGKKQSNAMEYKKTDAPQPDVKDEEGKEEEKNKRDEEEEEEKLEEKQKSDAEEDGVTGSQDEEDSKPKAEEDEILNRSPRNRKPRRE

The binders below were run against T1, Retention in endoplasmic reticulum 1 (Rer1), mouse (mouse (endogenous in brain)) (UniProt Q9CQU3) (assay: affinity purification with mass spectrometry; anti-RER1 immunoprecipitation of hippocampus lysates (gentle RIPA lysis buffer) of PTZ-induced Nedd4-2+/- and wild-type mice, LC-MS/MS; IgG-precipitated proteins subtracted; proteins present in all four replicates of a group defined as positive).
T1 sequence: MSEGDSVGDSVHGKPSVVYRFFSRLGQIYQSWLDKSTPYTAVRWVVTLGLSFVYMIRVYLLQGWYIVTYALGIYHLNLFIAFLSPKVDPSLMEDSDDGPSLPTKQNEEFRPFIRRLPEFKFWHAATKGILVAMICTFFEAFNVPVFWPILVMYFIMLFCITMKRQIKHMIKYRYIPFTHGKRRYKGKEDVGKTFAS

binding, binds:
B1
B2
B3
B4
